The values below are quoted from earlier work in patent publication US6828346B2, “Methods for administration of paclitaxel” (SuperGen, Inc., priority 1999, dated 2004).

On to `CC(=O)O[C@H]1C(=O)[C@@]2(C)[C@H]([C@H](OC(=O)c3ccccc3)[C@]3(O)C[C@H](OC(=O)[C@H](O)[C@@H](NC(=O)c4ccccc4)c4ccccc4)C(C)=C1C3(C)C)[C@]1(OC(C)=O)CO[C@@H]1C[C@@H]2O` [paclitaxel], for which the solubility in water entry was “less than 0.01 mg/mL”.
